Data: the supplement of paper PMC8728848
Some of the results follow.

How the values were obtained:
Experiment in all cases: glycan array binding signal (z-score within array); higher = stronger binding
Settings in all cases: glycan notation: IUPAC condensed, linker removed
[1] = target: Gal(b1-4)GlcNAc(b1-3)Gal(b1-4)GlcNAc(b1-3)Gal(b1-4)GlcNAc(b1-3)Gal(b1-4)GlcNAc(b1-2)Man(a1-3)[Gal(b1-4)GlcNAc(b1-3)Gal(b1-4)GlcNAc(b1-3)Gal(b1-4)GlcNAc(b1-3)Gal(b1-4)GlcNAc(b1-2)Man(a1-6)]Man(b1-4)GlcNAc(b1-4)[Fuc(a1-6)]GlcNAc
Procedure, shortened: (§1)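 Arrays were curated from the Consortium for Functional Glycomics database, 3228 in total, and kept only where the protein sequence was available. Binding is expressed as a within-array Z-score. This score was averaged across arrays of the same protein sequence at different concentrations or buffers and across linkers, and negative values can be read as non-binding.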

[2] = target: Gal(b1-4)GlcNAc(b1-3)Gal(b1-4)GlcNAc(b1-3)Gal(b1-4)GlcNAc(b1-3)Gal(b1-4)GlcNAc(b1-2)[Gal(b1-4)GlcNAc(b1-3)Gal(b1-4)GlcNAc(b1-3)Gal(b1-4)GlcNAc(b1-3)Gal(b1-4)GlcNAc(b1-6)]Man(a1-6)[Gal(b1-4)GlcNAc(b1-3)Gal(b1-4)GlcNAc(b1-3)Gal(b1-4)GlcNAc(b1-3)Gal(b1-4)GlcNAc(b1-2)Man(a1-3)]Man(b1-4)GlcNAc(b1-4)[Fuc(a1-6)]GlcNAc
Procedure, shortened: as §1

[3] = target: Gal(b1-4)GlcNAc(b1-3)Gal(b1-4)GlcNAc(b1-3)Gal(b1-4)GlcNAc(b1-3)Gal(b1-4)GlcNAc(b1-3)Gal(b1-4)GlcNAc(b1-2)Man(a1-3)[Gal(b1-4)GlcNAc(b1-3)Gal(b1-4)GlcNAc(b1-3)Gal(b1-4)GlcNAc(b1-3)Gal(b1-4)GlcNAc(b1-3)Gal(b1-4)GlcNAc(b1-2)Man(a1-6)]Man(b1-4)GlcNAc(b1-4)GlcNAc
Procedure, shortened: as §1

[4] = target: Gal(b1-4)GlcNAc(b1-3)Gal(b1-4)GlcNAc(b1-3)Gal(b1-4)GlcNAc(b1-3)Gal(b1-4)GlcNAc(b1-3)Gal(b1-4)GlcNAc(b1-2)Man(a1-3)[Gal(b1-4)GlcNAc(b1-3)Gal(b1-4)GlcNAc(b1-3)Gal(b1-4)GlcNAc(b1-3)Gal(b1-4)GlcNAc(b1-3)Gal(b1-4)GlcNAc(b1-2)Man(a1-6)]Man(b1-4)GlcNAc(b1-4)[Fuc(a1-6)]GlcNAc
Procedure, shortened: as §1

[5] = target: Gal(b1-4)GlcNAc(b1-3)Gal(b1-4)GlcNAc(b1-3)Gal(b1-4)GlcNAc(b1-3)Gal(b1-4)GlcNAc(b1-3)Gal(b1-4)GlcNAc(b1-2)[Gal(b1-4)GlcNAc(b1-3)Gal(b1-4)GlcNAc(b1-3)Gal(b1-4)GlcNAc(b1-3)Gal(b1-4)GlcNAc(b1-3)Gal(b1-4)GlcNAc(b1-6)]Man(a1-6)[Gal(b1-4)GlcNAc(b1-3)Gal(b1-4)GlcNAc(b1-3)Gal(b1-4)GlcNAc(b1-3)Gal(b1-4)GlcNAc(b1-3)Gal(b1-4)GlcNAc(b1-2)Man(a1-3)]Man(b1-4)GlcNAc(b1-4)[Fuc(a1-6)]GlcNAc
Procedure, shortened: as §1

[6] = target: Gal(b1-4)GlcNAc(b1-3)Gal(b1-4)GlcNAc(b1-3)Gal(b1-4)GlcNAc(b1-3)Gal(b1-4)GlcNAc(b1-3)Gal(b1-4)GlcNAc(b1-3)Gal(b1-4)GlcNAc(b1-2)Man(a1-3)[Gal(b1-4)GlcNAc(b1-3)Gal(b1-4)GlcNAc(b1-3)Gal(b1-4)GlcNAc(b1-3)Gal(b1-4)GlcNAc(b1-3)Gal(b1-4)GlcNAc(b1-3)Gal(b1-4)GlcNAc(b1-2)Man(a1-6)]Man(b1-4)GlcNAc(b1-4)GlcNAc
Procedure, shortened: as §1

[7] = target: Gal(b1-4)GlcNAc(b1-3)Gal(b1-4)GlcNAc(b1-3)GalNAc
Procedure, shortened: as §1

[8] = target: Gal(b1-4)GlcNAc(b1-3)Gal(b1-4)GlcNAc(b1-3)[Gal(b1-4)GlcNAc(b1-3)Gal(b1-4)GlcNAc(b1-6)]GalNAc
Procedure, shortened: as §1

[9] = target: Gal(b1-4)GlcNAc(b1-3)Gal(b1-4)GlcNAc(b1-6)[Gal(b1-3)]GalNAc
Procedure, shortened: as §1

[10] = target: Gal(b1-4)GlcNAc(b1-3)Gal(b1-4)[Fuc(a1-3)]GlcNAc(b1-3)Gal(b1-4)[Fuc(a1-3)]GlcNAc
Procedure, shortened: as §1

[11] = target: Gal(b1-4)GlcNAc(b1-3)GalNAc
Procedure, shortened: as §1

[12] = target: Gal(b1-4)GlcNAc(b1-3)[Fuc(a1-3)GlcNAc(b1-6)]Gal(b1-4)Glc
Procedure, shortened: as §1

[13] = target: Gal(b1-4)GlcNAc(b1-3)[Gal(b1-4)GlcNAc(b1-6)]Gal(b1-4)GlcNAc
Procedure, shortened: as §1

[14] = target: Gal(b1-4)GlcNAc(b1-3)[GlcNAc(b1-6)]Gal(b1-4)GlcNAc
Procedure, shortened: as §1

[15] = target: Gal(b1-4)GlcNAc(b1-6)Gal(b1-4)GlcNAc
Procedure, shortened: as §1

[16] = target: Gal(b1-4)GlcNAc(b1-6)GalNAc
Procedure, shortened: as §1

[17] = target: Gal(b1-4)GlcNAc(b1-6)[Gal(b1-3)]GalNAc
Procedure, shortened: as §1

[18] = target: Gal(b1-4)GlcNAc(b1-6)[Gal(b1-4)GlcNAc(b1-3)]GalNAc
Procedure, shortened: as §1

Gal(b1-4)GlcNAc6P = target: Gal(b1-4)GlcNAc6P
Procedure, shortened: as §1

Gal(b1-6)Gal = target: Gal(b1-6)Gal
Procedure, shortened: as §1

Gal3S(b1-3)GalNAc = target: Gal3S(b1-3)GalNAc
Procedure, shortened: as §1

Gal3S(b1-3)GlcNAc = target: Gal3S(b1-3)GlcNAc
Procedure, shortened: as §1

[19] = target: Gal3S(b1-3)[Fuc(a1-4)]GlcNAc
Procedure, shortened: as §1

B1: Loc1 (Escherichia coli) (protein)
chain: APCALTNVGEQRGTYILKPLSMKGNLTAEKIENTGNIIECTDLQETTNAIKVHFLTQNALKFKVGSRHYIINFPFEYDGKKIELPGKSSYNLEEMLSAINFTIPYSIASVSDSSNTADIFPGTPFPLLFEIEVSSCTGNNTNCNSVRFNYNLNTILQVNLMTHHHHHH
Question: B1 was tested. Which “glycan array binding signal (z-score)” value [1] did it give?
Answer: The value was 2.43.

Question: What about the “glycan array binding signal (z-score)” value [2] of the same binder?
Answer: Its value is -0.474.

Question: And the “glycan array binding signal (z-score)” value [3]?
Answer: The value was 0.363.

Question: And the “glycan array binding signal (z-score)” value [4]?
Answer: The value was 1.98.

Question: And the “glycan array binding signal (z-score)” value [5]?
Answer: The value was 0.935.

Question: What about the “glycan array binding signal (z-score)” value [6] of the same binder?
Answer: Its value is 0.16.

Question: What about the “glycan array binding signal (z-score)” value [7] of the same binder?
Answer: Its value is -0.212.

Question: And the “glycan array binding signal (z-score)” value [8]?
Answer: Its value is 0.233.

Question: And the “glycan array binding signal (z-score)” value [9]?
Answer: The value was -0.562.

Question: What about the “glycan array binding signal (z-score)” value [10] of the same binder?
Answer: The value was 0.555.

Question: What about the “glycan array binding signal (z-score)” value [11] of the same binder?
Answer: The value was -0.258.

Question: What about the “glycan array binding signal (z-score)” value [12] of the same binder?
Answer: Its value is -0.118.

Question: And the “glycan array binding signal (z-score)” value [13]?
Answer: The value was 0.396.

Question: And the “glycan array binding signal (z-score)” value [14]?
Answer: Its value is -0.48.

Question: And the “glycan array binding signal (z-score)” value [15]?
Answer: Its value is -0.424.

Question: And the “glycan array binding signal (z-score)” value [16]?
Answer: Its value is -0.233.

Question: What about the “glycan array binding signal (z-score)” value [17] of the same binder?
Answer: The value was 0.844.

Question: What about the “glycan array binding signal (z-score)” value [18] of the same binder?
Answer: The value was 1.15.

Question: And the “glycan array binding signal (z-score)” value (Gal(b1-4)GlcNAc6P)?
Answer: The value was -0.213.

Question: What about the “glycan array binding signal (z-score)” value (Gal(b1-6)Gal) of the same binder?
Answer: The value was -0.579.

Question: What about the “glycan array binding signal (z-score)” value (Gal3S(b1-3)GalNAc) of the same binder?
Answer: The value was 0.608.

Question: And the “glycan array binding signal (z-score)” value (Gal3S(b1-3)GlcNAc)?
Answer: The value was 0.067.

Question: And the “glycan array binding signal (z-score)” value [19]?
Answer: Its value is -0.024.
